Source: US20260200923A1, “HETEROCYCLIC COMPOUNDS TARGETING THE NUDT5 PROTEIN” (Oxford University Innovation Limited, priority 2022, published 2026)
At least one structure is not confirmed: it was looked up by name or label, or the drawing left a doubt.

Molecular target: NUDT5 (Homo sapiens, UniProt Q9UKK9)
Assay: AMP-Glo catalytic assay, NUDT5
Format: biochemical
Conditions: BTK inhibitors tested alongside TH5427
Procedure: To identify alternative X groups, a screening exercise was performed. […] Inhibition activities of the compounds were determined using AMP-Glo system (Promega). The compounds were diluted from 50 μM to 0 μM in a final reaction containing 20 mM Hepes, 100 mM NaCl, 0.5 mM TCEP, 1 mM MgCl2 and 0.1% BSA, pH 7.4. The reactions were performed in 1536 well plate in […] reaction volume with 2 nM of NUDT5 and NUDT14, and […] of ADPr as the substrate. The final DMSO concentration was 0.5% for all reactions. NUDT5 reactions were incubated for 20 minutes while NUDT14 reactions were carried out for 1 hour at room temperature. […] The reactions were further incubated with the 4 μl of Detection solution for 1 hour at room temperature. Luminescence signals were then measured in PHERAstar FSX plate reader. Experiments were done in triplicate sets and data were analysed by GraphPad Prism 9. Data are represented as the mean±SD of three biological experiments: […]

C=CC(=O)N1CCC[C@@H](n2nc(-c3ccc(Oc4ccccc4)cc3)c3c(N)ncnc32)C1 [Ibrutinib]
activity in NUDT5 catalytic assay: the only active compound among the BTK inhibitors tested
